No constants are given. Whether binding was seen depends on the method and setting. In cells and extracts the contact can be indirect. Some binding calls cover weakened binding; strength is not graded here.
Biological target: Survivin (human (endogenous in human ES cells)) (UniProt O15392)
Test: co-IP; immunoprecipitation with Survivin in human ES cells; β-catenin found in the precipitate; no method section for the co-IP itself

The chains behind the UniProt entries cited, without tags or fusion partners.
UniProt O15392: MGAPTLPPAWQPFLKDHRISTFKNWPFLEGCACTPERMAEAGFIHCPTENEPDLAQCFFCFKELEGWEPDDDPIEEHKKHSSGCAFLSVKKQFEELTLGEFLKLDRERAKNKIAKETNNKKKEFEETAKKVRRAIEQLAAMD
UniProt P35222: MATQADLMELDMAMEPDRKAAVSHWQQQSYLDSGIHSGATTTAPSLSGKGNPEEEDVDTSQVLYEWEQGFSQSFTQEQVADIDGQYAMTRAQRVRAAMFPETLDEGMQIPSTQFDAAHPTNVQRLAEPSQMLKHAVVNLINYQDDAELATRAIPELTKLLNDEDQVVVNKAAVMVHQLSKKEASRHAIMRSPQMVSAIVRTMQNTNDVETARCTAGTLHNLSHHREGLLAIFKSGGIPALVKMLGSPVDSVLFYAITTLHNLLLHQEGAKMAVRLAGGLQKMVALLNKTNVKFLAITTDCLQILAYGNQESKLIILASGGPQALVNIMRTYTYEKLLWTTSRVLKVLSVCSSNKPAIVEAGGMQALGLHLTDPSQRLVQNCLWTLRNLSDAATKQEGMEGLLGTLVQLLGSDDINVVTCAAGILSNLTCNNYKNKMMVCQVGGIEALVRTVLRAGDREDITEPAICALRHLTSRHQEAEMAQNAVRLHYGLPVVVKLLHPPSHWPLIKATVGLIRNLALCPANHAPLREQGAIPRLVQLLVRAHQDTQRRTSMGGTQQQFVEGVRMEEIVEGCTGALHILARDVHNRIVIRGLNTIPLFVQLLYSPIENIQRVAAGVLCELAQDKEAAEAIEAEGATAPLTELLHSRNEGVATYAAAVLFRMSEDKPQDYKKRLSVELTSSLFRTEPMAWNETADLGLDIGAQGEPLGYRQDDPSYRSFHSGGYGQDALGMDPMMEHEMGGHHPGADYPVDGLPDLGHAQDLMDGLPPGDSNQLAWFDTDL

For β-catenin (from UniProt P35222 1-781), which binding is on record?
Its binding is “binds”.

Source: publication PMC5128714
